Consider 1 molecule from paper doi:10.1101/2023.01.26.525651.

The assay concerns the target T1, TNFR-Wengen-Flag (TNFR-wgn-Flag) (Drosophila) (UniProt Q9VWS4).
T1 sequence: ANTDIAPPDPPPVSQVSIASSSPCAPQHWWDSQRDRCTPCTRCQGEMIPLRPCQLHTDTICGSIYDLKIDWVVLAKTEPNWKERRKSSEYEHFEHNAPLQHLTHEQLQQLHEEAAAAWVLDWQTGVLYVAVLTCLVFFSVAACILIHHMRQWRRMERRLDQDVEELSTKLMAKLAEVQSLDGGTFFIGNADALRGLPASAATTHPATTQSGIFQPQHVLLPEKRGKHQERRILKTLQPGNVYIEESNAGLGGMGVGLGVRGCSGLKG
In words: co-IP.

Results are given in words; binding and its absence hold for the method and conditions named. Binding seen in cells or lysates may run through a third protein. Some entries that bind do so weakly or less than the wild type. Tags and fused reporters may be left off the sequences shown.

B1: FGFR-Breathless-GFP (FGFR-btl-GFP), full length (receptor, UniProt Q09147 20-1052)
chain: DLGCDYGHHRCYIDVTVENSPRQRHLLSDMDITLQCVRPMAKWFYEDKFQLRATLLRLERAQSGNSGNYGCLDSQNRWYNISLVVGHKEPVGNDIASFVKLEDAPALPESDLFFQPLNESRSLKLLQPLPKTVQRTAGGLFQLNCSPMDPDAKGVNISWLHNDTQILGGRGRIKLKRWSLTVGQLQPEDAGSYHCELCVEQDCQRSNPTQLEVISRKHTVPMLKPGYPRNTSIALGDNVSIECLLEDSALEPKITWLHKGNADNIDDLLQRLREQSQLPVDVTRLITRMDEPQVLRLGNVLMEDGGWYICIAENQVGRTVAASYVDLYSPSDTTTVRTTTTTTVASPIPTASTGEDNDDDVENPAAEASGGVGPPVFRKELKRLQHSLSGNTVNLACPVYGKANITWTKDKKPLNRELGVYVQKNWTLRFVEATSEDSGLYNCKVCNAWGCIQFDFSVQINDRTRSAPIIVVPQNQTVKVNGSLVMKCTVYSDLHPTVSWKRVVLKNASLDGLKSVEIQNLNFTVTNDSVVLTLRNVTFDQEGWYTCLASSGLGRSNSSVYLRVVSPLPPLEIYALLHAHPLGFTLAAITIVALFLLGSAFITFMLRRLRREKLLKLRIETVHQWTKKVIIYRPGGEEGSGCSSGDLQMPVIRIEKQRTTVSTTGTGGTDPAQGFNEYEFPLDSNWEIPRQQLSLGSILGEGAFGRVVMAEAEGLPRSPQLAETIVAVKMVKEEHTDTDMASLVREMEVMKMIGKHINIINLLGCCSQGGPLWVIVEYAPHGNLKDFLKQNRPGAPQRRSDSDGYLDDKPLISTQHLGEKELTKFAFQIARGMEYLASRRCIHRDLAARNVLVSDGYVMKIADFGLARDIQDTEYYRKNTNGRLPIKWMAPESLQEKKYDSQSDVWSYGVLLWEIMTYGDQPYPHILSAEELYSYLITGQRMEKPAKCSLNIYVVMRQCWHFESCARPTFAELVESFDGILQQASSNPNDAYLDLSMPMLETPPSSGDEDDGSDTETFRETSPLRYQYTYKFN
Regarding B1, the binding result is “binds”.
